Values quoted from earlier work in US5459256A, “Lipophilic, aminohydrolase-activated prodrugs” (priority 1991, dated 1995).
At least one structure is not confirmed: it was looked up by name or label, or the drawing left a doubt. Some entries repeat one wording, which the source may state once for all of them.

System: human immunodeficiency virus (HIV)
Settings: background statement; cited from earlier work

| Structure (SMILES) | HIV replication in presence of compound (in words) | in vitro activity against HIV (in words) |
| --- | --- | --- |
| O=C(O)P(=O)(O)O [phosphonoformate] | HIV replication is considerably slower |  |
| O=c1[nH]cnc2c1ncn2[C@H]1CC[C@@H](CO)O1 [ddI, dideoxyinosine, reference compound] |  | potent in vitro activity |
